# In all, about 390,000 compounds went through this assay and about 910 (0.23%) were called active. Inconclusive means that the source gave no clear call. Such entries were picked first, then a sample of the others. The call rests on the fitted dose curve; in most records, active means well fitted inhibition curve with a large enough effect; inconclusive means small, poorly fitted or top-dose-only effect; inactive means no such curve, though single readings can be large or run the other way. Potencies of inconclusive entries are doubtful fits and often do not repeat.
# Amino acid sequences for entries named in this document (tags omitted). A change or cut given only in a name is not applied to a line headed by its entry.
# UniProt O94782: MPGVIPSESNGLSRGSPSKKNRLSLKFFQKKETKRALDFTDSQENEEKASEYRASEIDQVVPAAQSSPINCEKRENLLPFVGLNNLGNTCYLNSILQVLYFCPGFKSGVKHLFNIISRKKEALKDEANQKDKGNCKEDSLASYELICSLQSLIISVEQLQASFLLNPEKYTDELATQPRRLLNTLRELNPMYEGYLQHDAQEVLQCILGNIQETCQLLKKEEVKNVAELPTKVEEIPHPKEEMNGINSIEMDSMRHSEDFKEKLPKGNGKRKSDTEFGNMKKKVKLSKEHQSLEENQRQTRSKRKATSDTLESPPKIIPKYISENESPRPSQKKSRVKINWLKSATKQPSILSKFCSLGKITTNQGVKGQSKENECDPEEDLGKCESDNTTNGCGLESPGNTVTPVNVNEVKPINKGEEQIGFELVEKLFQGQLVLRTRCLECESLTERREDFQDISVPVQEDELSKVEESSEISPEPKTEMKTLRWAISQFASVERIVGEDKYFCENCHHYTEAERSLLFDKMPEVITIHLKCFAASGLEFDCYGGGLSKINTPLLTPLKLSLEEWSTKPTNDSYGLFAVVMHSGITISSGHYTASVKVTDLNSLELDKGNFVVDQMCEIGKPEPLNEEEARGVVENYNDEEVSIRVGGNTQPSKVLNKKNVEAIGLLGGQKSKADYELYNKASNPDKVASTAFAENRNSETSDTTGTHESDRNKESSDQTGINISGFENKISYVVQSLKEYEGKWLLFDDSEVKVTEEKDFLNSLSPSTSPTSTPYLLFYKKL
# Molecular target: Ubiquitin carboxyl-terminal hydrolase 1 (Homo sapiens) (UniProt O94782)
# Experiment: Inhibitors of USP1/UAF1: Primary Screen; further: nearly all actives have a fitted effect of over 60% in size
# Conditions: recombinant USP1/UAF1, Ub-Rhodamine cleavage fluorescence; activity change, negative = inhibition: at 57.1 µM (top of the series)
# Outline: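 Step one: compound is pinned into 1nM USP1/UAF1 in HEPES pH 7.8 buffer with TCEP. Step two: 15 min room-temperature incubation. Step three: Ub-Rho (150nM final) starts cleavage, tracked by fluorescence over six one-minute reads.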
# On the % scale 0 is the no-effect control and ±100 the full control effect; potency means the concentration at half of the fitted maximal effect.
Structure (SMILES),Potency,"activity change, negative = inhibition"
Cc1cc2oc(C(=O)Nc3ccc(S(=O)(=O)Nc4ncccn4)cc3)cc(=O)c2cc1C,"inconclusive: 7.08 µM [inhibitor, single point]",–
CCc1ccc2oc(C(=O)Nc3cc(C)ccc3C)cc(=O)c2c1,inactive,–
CN(C(=O)CSc1nnc(-c2c[nH]c3ccccc23)n1C1CC1)C1CCS(=O)(=O)C1 (stereo unspecified),inactive,–
O=C(O)c1ccc2c(c1)OCCOCCOCCOCCOCCO2,inactive,–
CCOc1ccc(CC(=O)Nc2c(C(N)=O)oc3ccccc23)cc1OCC,inactive,–
COc1ccc(C(C(=O)NC2CCCCC2)N(C(=O)c2ccco2)c2ccccc2OC)cc1 (stereo unspecified),"inconclusive: 31.6 µM [inhibitor, single point]",–
Cc1noc(C)c1COC(=O)/C=C/c1ccc(Cl)cc1,inactive,–
CC(C)C[C@H](NC(=O)c1[nH]cnc1C(=O)N[C@@H](Cc1ccccc1)C(=O)OC(C)(C)C)C(=O)OCc1ccccc1,"inconclusive: 44.7 µM [inhibitor, partial curve]",–
O=[N+]([O-])c1cccc(S(=O)(=O)c2ccc(NCCOCCO)c([N+](=O)[O-])c2)c1,inactive,–
CCC(C(=O)Nc1nc(C)c(C)s1)c1ccccc1 (stereo unspecified),"inconclusive: 0.631 µM [inhibitor, full curve, poor fit]",–
CC(=O)Nc1cc(C(=O)CSc2nnc(C3CC3)n2C2CC2)ccc1O,inactive,–
CC(SCC(=O)Nc1ccccc1Br)c1nc2ccccc2c(=O)[nH]1 (stereo unspecified),"inconclusive: 10 µM [inhibitor, partial curve]",–
COc1ccc(-n2c(C)cc(/C=C3\SC(=S)N(Cc4ccco4)C3=O)c2C)cc1,"inconclusive: 25.1 µM [inhibitor, partial curve]",–
Cc1nnc(N(C(=O)c2cnccn2)c2ccccc2)s1,inactive,–
CCSc1cnn(-c2ccccc2)c(=O)c1SCC,"inconclusive: 7.08 µM [inhibitor, single point]",–
O=C(Nc1cccc(Oc2ccc(C(=O)O)c(C(=O)O)c2)c1)c1ccc(-c2ccccc2)cc1,"inconclusive: 44.7 µM [inhibitor, partial curve, poor fit]",–
C/C(=N\N(c1ccccc1)c1ccccc1)c1ccc(O)cc1,"inconclusive: 12.6 µM [inhibitor, partial curve, poor fit]",–
Cc1ccc2onc(CNC(=O)NCc3cccc(Cl)c3)c2c1,"inconclusive: 31.6 µM [inhibitor, partial curve]",–
CCN(CC(=O)NC(C)C)C(=O)c1cc(S(=O)(=O)N2CCCCC2)ccc1N1CCCCC1,"inconclusive: 14.1 µM [inhibitor, partial curve]",–
COc1ccc(CNC(=O)c2csc(Cc3ccc(Cl)cc3)n2)cc1,inactive,–
COc1cccc(-c2cn3c(n2)sc2cc(C(=O)NCCc4ccc(OC)c(OC)c4)ccc23)c1,inactive,–
Cc1ccc2cc(C#N)c(N3CCCC3)nc2c1C,"inconclusive: 35.5 µM [inhibitor, partial curve]",–

Structure (SMILES),Potency,"activity change, negative = inhibition"
Cc1cc(=O)oc2cc(NC(=O)c3cc([N+](=O)[O-])ccc3N3CCOCC3)ccc12,–,inconclusive: -15.4% [inhibitor]
CC(=O)Nc1ccc(NC(=O)CSc2nc3nc(-c4cccs4)cc(C(F)(F)F)c3c(=O)[nH]2)cc1,inactive,–
CCCS(=O)(=O)N1CC(=O)N(c2cc(C)ccc2C)C(C)(C(=O)NC2CCCCCC2)C1 (stereo unspecified),"inconclusive: 14.1 µM [inhibitor, partial curve, poor fit]",–
O=C(OCc1c(-c2ccccc2)ncc2ccccc12)c1ccco1,"inconclusive: 39.8 µM [inhibitor, partial curve]",–
CCOC(=O)c1ccccc1NC(=O)CSc1nc(=O)[nH]c2c1CCC2,"inconclusive: 50.1 µM [inhibitor, partial curve, poor fit]",–
Cc1ccc(CSc2nnc(-c3ccc4c(c3)OCO4)o2)cc1,inactive,–
O=C1C=C(O)c2cccc(O)c2C1=O,active: 31.6 µM,–
Cc1nc2ccccc2n2c(O)c(CC(=O)O)cc12,"inconclusive: 2.82 µM [inhibitor, full curve, poor fit]",–
O=C(CN1c2ccccc2Sc2ccccc21)NNC(=O)Nc1cccc(Cl)c1,inactive,–
Cc1ccccc1OCC(O)CN1CCN(CC(O)COc2ccccc2C)CC1 (stereo unspecified),"inconclusive: 7.94 µM [inhibitor, full curve, poor fit]",–
Cc1ccc(CSCCNC(=O)CN(c2ccc(F)cc2)S(C)(=O)=O)cc1,"inconclusive: 5.01 µM [inhibitor, full curve, poor fit]",–
CCOC(=O)N1CCN(Cc2nc3cc(NC(=O)c4ccc(OC)cc4)ccc3n2C(C)C)CC1,"inconclusive: 316 µM [inhibitor, partial curve, poor fit]",–
COc1ccc(OCC(=O)Nc2nnc3n2CCS3)cc1,inactive,–
CS(=O)(=O)N(Cc1nc(-c2ccc(F)cc2)no1)c1ccccc1Cl,"inconclusive: 50.1 µM [inhibitor, partial curve, poor fit]",–
O=C(Nc1cc(S(=O)(=O)N2CCCC2)ccc1Cl)c1cc(F)c(F)c(F)c1F,"inconclusive: 0.708 µM [inhibitor, full curve, poor fit]",–
CCOC(=O)/C(C#N)=C\c1c(OCC)n(CC)c2ccccc12,"inconclusive: 44.7 µM [inhibitor, partial curve]",–
FC(F)(F)Oc1ccc2c(c1)NC(c1ccncc1)=NC(c1cccs1)=N2,"inconclusive: 5.62 µM [inhibitor, single point]",–
COC(=O)c1ccc(OC(=O)/C=C/c2ccco2)cc1,"inconclusive: 35.5 µM [inhibitor, partial curve]",–
Cc1ccc(O)c(NC(=O)c2cc(-c3ccc4c(c3)OCO4)on2)c1,"inconclusive: 0.708 µM [inhibitor, full curve, poor fit]",–
CN(Cc1ccc(-n2cccn2)cc1)Cc1cn(C)nc1-c1ccccc1F,"inconclusive: 44.7 µM [inhibitor, partial curve]",–
COc1ccc(CNC(=O)CCCn2nc(C)c([N+](=O)[O-])c2C)cc1OC,inactive,–
CCNCc1cc(OCC)c(OCC(=O)NCCc2ccccc2)cc1Cl,inactive,–

# Full records, quoted from the list. Values in the order: Potency	activity change, negative = inhibition
# `O=C(OCc1c(-c2ccccc2)ncc2ccccc12)c1ccco1` is listed as inconclusive: 39.8 µM [inhibitor, partial curve]	–
# `Cc1ccccc1OCC(O)CN1CCN(CC(O)COc2ccccc2C)CC1` (stereo unspecified) is listed as inconclusive: 7.94 µM [inhibitor, full curve, poor fit]	–

# An excerpt taken from the entries so far, as a working copy:
Structure (SMILES),Potency,"activity change, negative = inhibition"
CCOC(=O)N1CCN(Cc2nc3cc(NC(=O)c4ccc(OC)cc4)ccc3n2C(C)C)CC1,"inconclusive: 316 µM [inhibitor, partial curve, poor fit]",–
COc1ccc(OCC(=O)Nc2nnc3n2CCS3)cc1,inactive,–

# Remaining list, next part:

Structure (SMILES),Potency,"activity change, negative = inhibition"
COc1ccc(C(=O)Nc2ccc(OCC(F)(F)C(F)F)c(C(F)(F)F)c2)cc1OC,"inconclusive: 44.7 µM [inhibitor, partial curve, poor fit]",–
C/C(=N\N1C(=O)CSC1=S)c1ccc(Br)cc1,"inconclusive: 39.8 µM [inhibitor, partial curve]",–
COc1ccc(C(=O)O)cc1NC(=S)NC(=O)CSc1ccc(Cl)cc1,"inconclusive: 35.5 µM [inhibitor, partial curve]",–
COc1ccc(CCNC(=O)c2cc(S(=O)(=O)N(C)c3ccccc3)ccc2Cl)cc1,inactive,–
O=c1c(-c2nnc(SCc3ccc(Cl)cc3Cl)o2)cccn1Cc1ccccc1,"inconclusive: 12.6 µM [inhibitor, partial curve, poor fit]",–
CC(=O)c1cccc(S(=O)(=O)N2CCC(C(=O)Oc3ccc(-c4nnco4)cc3)CC2)c1,"inconclusive: 12.6 µM [inhibitor, partial curve]",–
Cc1ccc(NC(=O)CSc2nc3[nH]c(=O)cc(O)c3s2)c(Br)c1,inactive,–
C=CCOc1ccc(C=Nc2ccc(OC)cc2)c(O)c1,"inconclusive: 0.1 µM [inhibitor, full curve, poor fit]",–
CCN1CCN(C2=C(NS(=O)(=O)c3ccc(NC(C)=O)cc3)C(=O)c3ccccc3C2=O)CC1,inactive,–
COC(=O)c1ccc(CSc2nc3sc4c(c3c(=O)n2C)CCCC4)o1,"inconclusive: 25.1 µM [inhibitor, single point]",–
Cc1cc(C)c(OCC(=O)NCC(C)(C)N2CCOCC2)c(C)c1,inactive,–
CCn1cc(S(=O)(=O)c2cccc(Cl)c2)c(=O)c2cc(F)c(N3CCC(C)CC3)cc21,"inconclusive: 11.2 µM [inhibitor, partial curve, poor fit]",–
Cc1ccc(N(C(=O)c2snc(C(N)=O)c2N)C(C(=O)NCc2ccccc2)c2ccncc2)c(C)c1 (stereo unspecified),inactive,–
CCN(CC)CCCN(Cc1cc2cc3c(cc2[nH]c1=O)OCCO3)C(=O)Nc1ccc(F)cc1,inactive,–
O=C(O)c1ccc2c(=O)n3c(nc2c1)/C(=C/c1ccc(OC(F)F)cc1OC(F)F)CC3,"inconclusive: 44.7 µM [inhibitor, partial curve]",–
CC(C)(C)OC(=O)N1CCN(c2ccc([N+](=O)[O-])cc2)CC1,inactive,–
O=C(Cn1c(=O)oc2cc(S(=O)(=O)NCc3ccccc3)ccc21)Nc1ccc(F)c(Cl)c1,"inconclusive: 8.91 µM [inhibitor, partial curve, poor fit]",–
Cc1ccc(SCC(=O)Nc2cc([N+](=O)[O-])ccc2O)cc1,"inconclusive: 7.94 µM [inhibitor, partial curve, poor fit]",–
COc1cc(NC(=O)Cn2nnc(-c3ccc(C(F)(F)F)cc3)n2)c(C(=O)O)cc1OC,"inconclusive: 2 µM [inhibitor, full curve, poor fit]",–
CCOc1ccc(N(CC)C(=O)C2CCN(S(=O)(=O)c3cccc4nonc34)CC2)cc1,"inconclusive: 0.631 µM [inhibitor, full curve, poor fit]",–
CCOc1cc(NC(=O)C2CC2)c(OCC)cc1NC(=O)c1cc(OC)c(OC)c(OC)c1,"inconclusive: 44.7 µM [inhibitor, single point]",–
CC1=CC(C)(C)n2c(O)c(N=N)c3c(C)c(C)cc1c32,"inconclusive: 44.7 µM [inhibitor, partial curve]",–

# — PubChem BioAssay AID743255 (National Center for Advancing Translational Sciences (NCATS), 2014)
